Data reported in publication PMC7939381, “MMP activation–associated aminopeptidase N reveals a bivalent 14-3-3 binding motif” (The Journal of Biological Chemistry, 2021).
No constants are given. Whether binding was seen depends on the method and setting. Binding seen in cells or lysates may run through a third protein. Some binding calls cover weakened binding; strength is not graded here. For some of these results: Tags and fused reporters may be left off the sequences shown.

Protein sequences, listed by entry. Tags and fused reporters are not part of them.
UniProt P31946: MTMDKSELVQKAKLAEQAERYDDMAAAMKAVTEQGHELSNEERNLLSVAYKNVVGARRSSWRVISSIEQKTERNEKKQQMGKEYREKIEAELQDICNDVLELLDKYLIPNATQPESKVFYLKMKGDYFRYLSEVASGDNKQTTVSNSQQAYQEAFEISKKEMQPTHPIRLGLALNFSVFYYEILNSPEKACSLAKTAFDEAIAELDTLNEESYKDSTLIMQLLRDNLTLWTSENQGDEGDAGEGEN

T1: biotinylated peptide 6, APN 39–47 pSer44 (human)
T1 sequence (peptide, phosphoserine at 44 (KNANSpSPVA); biotin via a PEG4 linker): KNANSSPVA

T2: biotinylated peptide 1, APN 38–46 pSer43 (human)
T2 sequence (peptide, phosphoserine at 43 (NKNANpSSPV); biotin via a PEG4 linker): NKNANSSPV

T3: 14-3-3η, full length, N-terminally His6-tagged (human) (UniProt Q04917)
T3 sequence: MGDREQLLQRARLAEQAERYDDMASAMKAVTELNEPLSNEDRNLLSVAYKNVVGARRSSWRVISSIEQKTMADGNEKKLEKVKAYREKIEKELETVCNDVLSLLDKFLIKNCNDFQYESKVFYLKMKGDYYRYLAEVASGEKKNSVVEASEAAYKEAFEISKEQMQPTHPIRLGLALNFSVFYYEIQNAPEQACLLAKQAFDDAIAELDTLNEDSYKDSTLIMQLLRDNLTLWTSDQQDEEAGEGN

B1: 14-3-3η, full length, N-terminally His6-tagged (protein, UniProt Q04917 1-246)
chain: T3 sequence

Assays:
[1] = molecular target: T1, biotinylated peptide 6, APN 39–47 pSer44 (human); experiment: pull-down; biotinylated peptide on streptavidin Sepharose beads, incubated 120 min in lysate of E. coli overexpressing His6-14-3-3; 50 mM HEPES pH 7.4, 250 mM NaCl, 20 mM MgCl2; SDS-PAGE, NTA-Atto488 and Coomassie stain; only the target purified
[2] = molecular target: T2, biotinylated peptide 1, APN 38–46 pSer43 (human); experiment: as above
[3] = molecular target: T3, 14-3-3η, full length, N-terminally His6-tagged (human); experiment: pull-down; competition: beads with biotin-1 and 14-3-3 captured from E. coli lysate incubated with 96 nmol soluble acetylated peptide 1 for 60 min, washed; SDS-PAGE; only the binder purified
[4] = molecular target: 14-3-3β/α, full length, N-terminally His6-tagged (human) (UniProt P31946); experiment: as above

| Binder | binding [1] | binding [2] | binding [3] | binding [4] |
| --- | --- | --- | --- | --- |
| B1 | no binding | binds |  |  |
| NKNANSSPV (phosphoserine at 43 (NKNANpSSPV); N-terminal acetyl) [acetylated (label-free, unlabeled) peptide 1, APN 38–46 pSer43] |  |  | binds | binds |
